Some results were stated once for a whole list of compounds, not compound by compound.
Tests used:
[1] = tested on: Western Flower Thrips (Frankliniella occidentalis); assay: Insecticidal test on western flower thrips (kidney bean leaf pieces, hatched larvae); format: in vivo; settings: 4 days after the treatment
Description: • A: the mortality rate is 100%. • B: the mortality rate is 90 to 99%. • C: the mortality rate is 80 to 89%. • D: the mortality rate is 50 to 79%. • E: the mortality rate is 0 to 49%.
Insecticidal Test on Western Flower Thrips (Frankliniella occidentalis)
Female adults of western flower thrips were inoculated onto kidney bean leaf pieces, and allowed to lay eggs thereon for one day, then the female adults were removed. After 3 days, the hatched larvae on the leaf pieces were counted, and then the agrochemical dispersions diluted to 50 ppm or 500 ppm, each of which contained the compound described in Tables 1 to 6 as an active ingredient were applied. The number of larvae of the species surviving at 4 days after the treatment was counted, and the corrected mortality rate was calculated according to the formula shown below, and the insecticidal efficacy was evaluated according to the criteria of Test Example 1. This test was conducted in duplicate.

[2] = tested on: Small Brown Planthopper (Laodelphax striatellus); assay: Insecticidal test on small brown planthopper (dipped rice seedlings, 3rd-instar larvae); format: in vivo; settings: rice seedlings dipped 30 seconds, 8 days after inoculation

CNC(=O)N1C(=O)C(C(=O)Nc2ccc(F)cc2)=C(O)CN1c1ccc(C(F)(F)F)nc1 [3-20]
A (the mortality rate is 100%): insecticidal efficacy (corrected mortality rate) against western flower thrips ([1]; 50 ppm) | insecticidal efficacy (corrected mortality rate) against western flower thrips ([1]; 500 ppm) | insecticidal efficacy (corrected mortality rate) against small brown planthopper ([2]; 50 ppm) | insecticidal efficacy (corrected mortality rate) against small brown planthopper ([2]; 500 ppm)

CCCCCOC(=O)N1C(=O)C(C(=O)Nc2ccc(F)cc2)=C(O)CN1c1ccc(C#N)nc1 [3-312]
A (the mortality rate is 100%): insecticidal efficacy (corrected mortality rate) against western flower thrips ([1]; 50 ppm) | insecticidal efficacy (corrected mortality rate) against western flower thrips ([1]; 500 ppm) | insecticidal efficacy (corrected mortality rate) against small brown planthopper ([2]; 50 ppm) | insecticidal efficacy (corrected mortality rate) against small brown planthopper ([2]; 500 ppm)

COC(=O)N1C(=O)C(C(=O)Nc2cccc(C)n2)=C(O)CN1c1cnc(C#N)c(Cl)c1 [3-489]
A (the mortality rate is 100%): insecticidal efficacy (corrected mortality rate) against western flower thrips ([1]; 50 ppm) | insecticidal efficacy (corrected mortality rate) against western flower thrips ([1]; 500 ppm) | insecticidal efficacy (corrected mortality rate) against small brown planthopper ([2]; 50 ppm) | insecticidal efficacy (corrected mortality rate) against small brown planthopper ([2]; 500 ppm)

CC(C)(C)OC(=O)N1C(=O)C(C(=S)NCc2ccccc2)=C(O)CN1c1ccc(C(F)(F)F)nc1 [4-38]
A (the mortality rate is 100%): insecticidal efficacy (corrected mortality rate) against western flower thrips ([1]; 500 ppm) | insecticidal efficacy (corrected mortality rate) against small brown planthopper ([2]; 500 ppm)

CCNC(=O)N1C(=O)C(C(=O)Nc2ccc(F)cc2)=C(O)CN1c1ccc(C#N)c(Cl)c1 [3-407]
A (the mortality rate is 100%): insecticidal efficacy (corrected mortality rate) against western flower thrips ([1]; 50 ppm) | insecticidal efficacy (corrected mortality rate) against western flower thrips ([1]; 500 ppm) | insecticidal efficacy (corrected mortality rate) against small brown planthopper ([2]; 50 ppm) | insecticidal efficacy (corrected mortality rate) against small brown planthopper ([2]; 500 ppm)

COC(=O)N1C(=O)C(C(=O)Nc2cccc(C)n2)=C(O)CN1c1ccc(C#N)cc1 [3-541]
A (the mortality rate is 100%): insecticidal efficacy (corrected mortality rate) against western flower thrips ([1]; 50 ppm) | insecticidal efficacy (corrected mortality rate) against western flower thrips ([1]; 500 ppm) | insecticidal efficacy (corrected mortality rate) against small brown planthopper ([2]; 50 ppm) | insecticidal efficacy (corrected mortality rate) against small brown planthopper ([2]; 500 ppm)

COC(=O)N1C(=O)C(C(=S)Nc2ccc(Cl)cn2)=C(O)CN1c1ccc(C#N)nc1 [4-58]
A (the mortality rate is 100%): insecticidal efficacy (corrected mortality rate) against western flower thrips ([1]; 500 ppm) | insecticidal efficacy (corrected mortality rate) against small brown planthopper ([2]; 50 ppm) | insecticidal efficacy (corrected mortality rate) against small brown planthopper ([2]; 500 ppm)

COC(=O)N1C(=O)C(C(=O)Nc2ccc(Cl)nc2)=C(O)CN1c1ccc(C#N)nc1 [3-186]
A (the mortality rate is 100%): insecticidal efficacy (corrected mortality rate) against western flower thrips ([1]; 50 ppm) | insecticidal efficacy (corrected mortality rate) against western flower thrips ([1]; 500 ppm) | insecticidal efficacy (corrected mortality rate) against small brown planthopper ([2]; 50 ppm) | insecticidal efficacy (corrected mortality rate) against small brown planthopper ([2]; 500 ppm)

COc1cccc(NC(=O)C2=C(O)CN(c3ccc(C#N)cc3)NC2=O)c1 [1-235]
A (the mortality rate is 100%): insecticidal efficacy (corrected mortality rate) against western flower thrips ([1]; 500 ppm) | insecticidal efficacy (corrected mortality rate) against small brown planthopper ([2]; 50 ppm) | insecticidal efficacy (corrected mortality rate) against small brown planthopper ([2]; 500 ppm)

COC(=O)N1C(=O)C(C(=S)Nc2ccc(Cl)nc2)=C(O)CN1c1ccc(C#N)nc1 [4-61]
A (the mortality rate is 100%): insecticidal efficacy (corrected mortality rate) against western flower thrips ([1]; 50 ppm) | insecticidal efficacy (corrected mortality rate) against western flower thrips ([1]; 500 ppm) | insecticidal efficacy (corrected mortality rate) against small brown planthopper ([2]; 500 ppm)

Source: US20250074896A1, “ARYLTETRAHYDROPYRIDAZINE DERIVATIVE OR SALT THEREOF AND INSECTICIDAL AGENT CONTAINING THE COMPOUND AND METHOD FOR USING SAME” (NIHON NOHYAKU CO., LTD., priority 2021, published 2025)
